Experiment [1] can be described thus: qHTS Assay for Inhibitors of PDE-IV (AID 607). Conditions: HEK293 ACTOne CNG channel cells, membrane potential fluorescence; measured here: parental cell counter-screen. In a few lines:
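Live HEK293 cells with a modified cyclic nucleotide-gated (CNG) channel report intracellular cAMP via membrane-potential dye fluorescence (ex 535/em 590 nm). Endogenous PDE-IV was targeted. Compounds were tested at up to 22.9 uM final; RO 20-1724 100 uM served as control.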
A general note: In qHTS, concentration-response curves come from the screen itself.

Experiment [2] can be described thus: qHTS Assay for Lipid Storage Modulators (AID 1519). Conditions: Drosophila S3 cells, BODIPY lipid droplet/cell ratio, laser cytometry, cells loaded with oleic acid. In a few lines:
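Cells seeded at 5,000 per well were treated with compounds over a concentration series and loaded with oleic acid (400 uM, as added). Lipid droplet fluorescence (488 nm excitation, 500-530 nm channel) was read by laser-scanning cytometry and normalized to 20 uM Triacsin C.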

The mark [3] stands for this setting: measured here: cell count channel max response.
The mark [4] stands for this setting: measured here: cell number channel AC50.
The mark [5] stands for this setting: measured here: lipid (BODIPY) channel AC50.
[6] abbreviates: measured here: lipid channel max response.

Structures are written as SMILES. This is one part of the list. Shown are side measurements of this screen, not its main read-out; they come without a call. The list favours compounds with an active or inconclusive main result. Words in brackets tell the shape of the fitted curve; partial curves, single points and poor fits give uncertain potencies.

For the molecule `COc1ccc(CNc2ncnc3ccc(-c4ccc5c(c4)OCO5)cc23)c(OC)c1`, the concentration at half-maximal activity (AC50) (in general, the concentration giving half of the maximal activity seen) in experiment [1] is 12.6 µM [rising, partial curve]; in experiment [2] (setting [4]), 3.16 µM [rising, partial curve]; in experiment [2] (setting [5]), 2.51 µM [rising, partial curve, poor fit]. Moreover, the max response in experiment [2] (setting [3]) came to 17.5%; in experiment [2] (setting [6]), 15.7%.
`O=C1c2ccccc2C(Cc2ccncc2)(Cc2ccncc2)c2ccccc21`: the AC50 is 15.8 µM [rising, partial curve] in experiment [1]; 2.24 µM [rising, full curve] in experiment [2] (setting [4]); 1.78 µM [rising, full curve, poor fit] in experiment [2] (setting [5]). Further, the max response amounted to 69.8% in experiment [2] (setting [3]) and 76.2% in experiment [2] (setting [6]).
With `COc1ccccc1CNc1ccnc(-c2ccccc2CN(C)C)n1`, the AC50 in experiment [1] is 6.31 µM [rising, partial curve]; in experiment [2] (setting [4]) it was 2.82 µM [rising, partial curve]; in experiment [2] (setting [5]) it was 10 µM [rising, partial curve, poor fit]. The max response in experiment [2] (setting [3]) came out at 47.2%; in experiment [2] (setting [6]) it was 50.3%.
Take `COc1ccc(CNc2ncnc3ccc(-c4ccccc4OC)cc23)c(OC)c1`: the AC50 in experiment [1] is 15.8 µM [rising, single point]; in experiment [2] (setting [4]), 7.08 µM [rising, single point]; in experiment [2] (setting [5]), 3.98 µM [rising, single point]. Also, the max response in experiment [2] (setting [3]) is 8.19%; in experiment [2] (setting [6]), -1.57%.
Consider `COc1ccccc1-c1cc(=O)c2cc(O)ccc2o1`, for which the AC50 in experiment [1] was 20 µM [rising, partial curve, poor fit]; in experiment [2] (setting [4]), 2.51 µM [rising, full curve]; in experiment [2] (setting [5]) it was 1.78 µM [rising, full curve]. Besides, the values for the max response in experiment [2] (setting [3]) and in experiment [2] (setting [6]) were 90.5% and 125%, respectively.
Consider `N=C(C[C@@H](O)COc1ccccc1-c1ccccc1)N1CCCCC1`, for which the AC50 in experiment [1] was 25.1 µM [rising, single point]; in experiment [2] (setting [4]) it was 35.5 µM [rising, single point]; in experiment [2] (setting [5]), 3.16 µM [rising, full curve, poor fit]. In addition, the max response in experiment [2] (setting [3]) came to 32.9%; in experiment [2] (setting [6]) it was 33.9%.

The record behind these values is PubChem BioAssay (NCATS).
